The inconclusive results got no clear call from the source; some entries with a clear call stand among them for comparison. Calls of active or inactive are those of the source. How the calls were made is not given here.
Assay: growth inhibition of wild-type RFP versus H38-humanized GFP E. coli, dose response, H38 mutant GFP vs wild-type RFP, cherry-pick (AID 977627)
Settings: E. coli H38 humanized ribosome GFP strain, fluorescence, 24 h; at 50 µM (top of the series)
For CCOC(=O)c1c(NC(=O)Cc2cccs2)sc(C)c1C, the activity change, negative = inhibition was inconclusive: -5.09. For COc1cc2c(cc1[N+](=O)[O-])-c1ccc([N+](=O)[O-])cc1C2, the activity change, negative = inhibition was inconclusive: 3.68. In the case of COc1ccc(Nc2oc(-c3ccco3)nc2S(=O)(=O)c2ccc(F)cc2)cc1, the activity change, negative = inhibition is reported as inconclusive: 3.21. In the case of COc1ccc(Cn2c(-c3ccc(Cl)cc3)c[n+]3ccccc23)cc1, the activity change, negative = inhibition is reported as inconclusive: 7.96. In the case of CCOc1ccccc1NC(=O)c1ccc2ccccc2c1, the activity change, negative = inhibition is reported as inactive: 5.48. In the case of COc1ccc(-n2cc(-c3ccccc3)c3c(N4CCOCC4)ncnc32)cc1, the activity change, negative = inhibition is reported as inconclusive: -4.43. For COc1ccc2[nH]c3c(=O)n(CCCCC(=O)NCCC(C)C)c(=S)[nH]c3c2c1, the activity change, negative = inhibition was inconclusive: 15.8. For COc1cccc(C(=O)Nc2cc(C)nn2-c2ccccc2)c1OC, the activity change, negative = inhibition was inconclusive: 0.672.
